Assay results published in doi:10.1101/2025.08.01.668046.
Read-outs that look alike come from different tables or passages of the source. These are yes or no findings as the source states them, for the method shown. Binding seen in cells or lysates may run through a third protein. Some entries that bind do so weakly or less than the wild type. Where a sequence is shown, tags or fusion partners need not be part of it.

Experiments:
Assay in all cases: pull-down
ATG8D (Arabidopsis) = biological target: T1, ATG8D (Arabidopsis) (UniProt Q9SL04)
T1 sequence: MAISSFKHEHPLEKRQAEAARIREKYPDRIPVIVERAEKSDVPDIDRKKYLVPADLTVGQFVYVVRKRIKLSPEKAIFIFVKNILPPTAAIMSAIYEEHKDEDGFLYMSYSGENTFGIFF

GST-ATG8A (Arabidopsis) [1] = biological target: T2, GST-ATG8A (Arabidopsis) (UniProt Q8LEM4)
T2 sequence: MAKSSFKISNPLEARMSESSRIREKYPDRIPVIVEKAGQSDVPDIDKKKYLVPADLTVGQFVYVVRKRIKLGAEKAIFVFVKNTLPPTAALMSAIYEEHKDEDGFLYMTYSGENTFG

ATG8F (Arabidopsis) = biological target: T3, ATG8F (Arabidopsis) (UniProt Q8VYK7)
T3 sequence: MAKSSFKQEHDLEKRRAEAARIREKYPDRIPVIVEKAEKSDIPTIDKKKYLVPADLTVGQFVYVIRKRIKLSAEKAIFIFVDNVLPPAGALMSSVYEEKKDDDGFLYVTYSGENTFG

ATG8H (Arabidopsis) = biological target: T4, ATG8H (Arabidopsis) (UniProt Q8S925)
T4 sequence: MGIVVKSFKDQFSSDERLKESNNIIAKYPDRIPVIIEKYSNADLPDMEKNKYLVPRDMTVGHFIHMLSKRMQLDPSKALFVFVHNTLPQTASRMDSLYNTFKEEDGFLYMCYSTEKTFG

ATG8G (Arabidopsis) = biological target: T5, ATG8G (Arabidopsis) (UniProt Q9LZZ9)
T5 sequence: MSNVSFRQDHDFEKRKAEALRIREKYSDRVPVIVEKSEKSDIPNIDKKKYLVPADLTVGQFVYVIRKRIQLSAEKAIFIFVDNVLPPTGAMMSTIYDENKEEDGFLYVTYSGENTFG

ATG8B (Arabidopsis) = biological target: T6, ATG8B (Arabidopsis) (UniProt Q9XEB5)
T6 sequence: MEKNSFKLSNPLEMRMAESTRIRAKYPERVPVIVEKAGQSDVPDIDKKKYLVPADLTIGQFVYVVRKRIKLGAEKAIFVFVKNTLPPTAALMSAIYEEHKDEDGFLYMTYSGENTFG

ATG8C (Arabidopsis) = biological target: T7, ATG8C (Arabidopsis) (UniProt Q8S927)
T7 sequence: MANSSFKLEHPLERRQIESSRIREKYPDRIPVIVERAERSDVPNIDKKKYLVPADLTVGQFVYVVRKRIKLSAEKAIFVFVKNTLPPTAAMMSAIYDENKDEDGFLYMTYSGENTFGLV

ATG8I (Arabidopsis) = biological target: T8, ATG8I (Arabidopsis) (UniProt Q9LRP7)
T8 sequence: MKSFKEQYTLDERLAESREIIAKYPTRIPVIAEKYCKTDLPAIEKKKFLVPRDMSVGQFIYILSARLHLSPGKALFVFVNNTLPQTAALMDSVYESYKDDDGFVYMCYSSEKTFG

GST-ATG8A (Arabidopsis) [2] = biological target: T2, GST-ATG8A (Arabidopsis); remark: listed apart in the source

Measured: binding

B1: MBP-LCAT4 (protein, UniProt Q71N54 1-535)
chain: MSLLLEEIIRSVEALLKLRNRNQEPYVDPNLNPVLLVPGIAGSILNAVDHENGNEERVWVRIFGADHEFRTKMWSRFDPSTGKTISLDPKTSIVVPQDRAGLHAIDVLDPDMIVGRESVYYFHEMIVEMIGWGFEEGKTLFGFGYDFRQSNRLQETLDQFAKKLETVYKASGEKKINVISHSMGGLLVKCFMGLHSDIFEKYVQNWIAIAAPFRGAPGYITSTLLNGMSFVNGWEQNFFVSKWSMHQLLIECPSIYELMCCPYFKWELPPVLELWREKESNDGVGTSYVVLESYCSLESLEVFTKSLSNNTADYCGESIDLPFNWKIMEWAHKTKQVLASAKLPPKVKFYNIYGTNLETPHSVCYGNEKMPVKDLTNLRYFQPTYICVDGDGTVPMESAMADGLEAVARVGVPGEHRGILNDHRVFRMLKKWLNVGEPDPFYNPVNDYVILPTTYEFEKFHENGLEVASVKESWDIISDDNNIGTTGSTVNSISVSQPGDDQNPQAEARATLTVQPQSDGRQHVELNAVSVSVDA
binds: ATG8D (Arabidopsis) | GST-ATG8A (Arabidopsis) [1] | ATG8F (Arabidopsis) | ATG8H (Arabidopsis) | ATG8G (Arabidopsis) | ATG8B (Arabidopsis) | ATG8C (Arabidopsis) | ATG8I (Arabidopsis) | GST-ATG8A (Arabidopsis) [2]
